Laboratory results reported in article PMC4066819.

Sequences of proteins named here, by UniProt entry; tags and fusion partners are left off.
UniProt Q8C092: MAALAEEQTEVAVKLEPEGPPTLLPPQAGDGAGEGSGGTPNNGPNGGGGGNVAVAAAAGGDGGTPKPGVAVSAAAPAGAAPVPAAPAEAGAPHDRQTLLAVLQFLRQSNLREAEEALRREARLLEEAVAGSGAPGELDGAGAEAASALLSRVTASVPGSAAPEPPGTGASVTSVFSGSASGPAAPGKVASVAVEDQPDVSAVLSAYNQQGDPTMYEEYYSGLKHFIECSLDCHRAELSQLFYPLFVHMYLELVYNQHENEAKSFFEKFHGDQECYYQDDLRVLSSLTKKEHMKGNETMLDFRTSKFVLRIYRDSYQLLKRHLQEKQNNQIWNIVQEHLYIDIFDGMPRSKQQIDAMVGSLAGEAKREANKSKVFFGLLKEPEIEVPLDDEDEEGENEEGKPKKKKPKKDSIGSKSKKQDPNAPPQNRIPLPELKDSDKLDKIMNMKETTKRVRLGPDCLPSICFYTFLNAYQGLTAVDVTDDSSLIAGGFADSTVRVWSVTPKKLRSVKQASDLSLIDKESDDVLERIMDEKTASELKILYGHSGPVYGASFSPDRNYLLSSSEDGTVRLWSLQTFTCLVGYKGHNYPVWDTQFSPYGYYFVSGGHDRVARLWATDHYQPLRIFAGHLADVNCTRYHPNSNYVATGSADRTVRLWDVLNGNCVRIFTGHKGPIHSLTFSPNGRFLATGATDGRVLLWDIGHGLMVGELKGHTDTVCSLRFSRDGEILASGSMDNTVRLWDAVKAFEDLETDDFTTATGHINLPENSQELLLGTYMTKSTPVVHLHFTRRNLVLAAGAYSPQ
UniProt P37238: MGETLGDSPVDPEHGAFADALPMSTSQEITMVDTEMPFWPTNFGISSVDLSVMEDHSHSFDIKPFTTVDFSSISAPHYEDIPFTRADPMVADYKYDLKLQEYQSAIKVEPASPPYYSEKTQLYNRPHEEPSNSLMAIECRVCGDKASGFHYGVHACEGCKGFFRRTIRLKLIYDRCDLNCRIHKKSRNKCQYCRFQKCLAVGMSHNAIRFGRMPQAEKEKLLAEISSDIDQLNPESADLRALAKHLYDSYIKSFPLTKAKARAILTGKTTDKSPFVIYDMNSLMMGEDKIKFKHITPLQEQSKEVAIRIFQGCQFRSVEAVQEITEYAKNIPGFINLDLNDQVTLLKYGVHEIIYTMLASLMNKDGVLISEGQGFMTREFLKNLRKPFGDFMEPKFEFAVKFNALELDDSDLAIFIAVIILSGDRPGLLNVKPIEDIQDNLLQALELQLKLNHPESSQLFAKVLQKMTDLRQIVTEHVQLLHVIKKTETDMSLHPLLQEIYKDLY
UniProt E9QAP7: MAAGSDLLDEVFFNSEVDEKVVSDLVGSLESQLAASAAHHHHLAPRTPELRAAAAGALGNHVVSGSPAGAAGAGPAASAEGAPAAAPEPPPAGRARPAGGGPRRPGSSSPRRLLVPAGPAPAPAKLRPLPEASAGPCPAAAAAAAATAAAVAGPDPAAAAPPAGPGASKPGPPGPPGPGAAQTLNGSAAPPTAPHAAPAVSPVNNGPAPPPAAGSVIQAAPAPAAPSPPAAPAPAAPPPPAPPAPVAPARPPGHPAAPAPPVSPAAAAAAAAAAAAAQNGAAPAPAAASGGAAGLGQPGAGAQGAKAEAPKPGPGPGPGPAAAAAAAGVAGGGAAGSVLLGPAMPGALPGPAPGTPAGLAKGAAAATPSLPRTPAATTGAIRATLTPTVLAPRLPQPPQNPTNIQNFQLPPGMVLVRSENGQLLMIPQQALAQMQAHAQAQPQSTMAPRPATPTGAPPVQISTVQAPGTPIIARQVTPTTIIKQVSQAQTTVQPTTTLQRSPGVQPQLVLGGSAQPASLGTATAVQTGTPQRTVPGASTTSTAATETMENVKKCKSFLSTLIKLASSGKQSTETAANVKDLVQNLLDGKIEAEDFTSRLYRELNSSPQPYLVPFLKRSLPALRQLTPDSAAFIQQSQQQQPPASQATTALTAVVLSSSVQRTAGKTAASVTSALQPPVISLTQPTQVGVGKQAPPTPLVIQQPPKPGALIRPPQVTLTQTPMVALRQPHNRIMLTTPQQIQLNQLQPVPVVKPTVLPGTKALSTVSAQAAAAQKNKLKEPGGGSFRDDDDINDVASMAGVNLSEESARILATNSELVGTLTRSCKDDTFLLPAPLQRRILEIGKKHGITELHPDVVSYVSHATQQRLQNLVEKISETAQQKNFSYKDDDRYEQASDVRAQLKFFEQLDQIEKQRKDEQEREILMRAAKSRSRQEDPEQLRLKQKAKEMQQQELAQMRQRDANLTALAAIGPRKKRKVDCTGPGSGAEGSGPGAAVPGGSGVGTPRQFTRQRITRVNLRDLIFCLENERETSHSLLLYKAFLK
UniProt Q62311: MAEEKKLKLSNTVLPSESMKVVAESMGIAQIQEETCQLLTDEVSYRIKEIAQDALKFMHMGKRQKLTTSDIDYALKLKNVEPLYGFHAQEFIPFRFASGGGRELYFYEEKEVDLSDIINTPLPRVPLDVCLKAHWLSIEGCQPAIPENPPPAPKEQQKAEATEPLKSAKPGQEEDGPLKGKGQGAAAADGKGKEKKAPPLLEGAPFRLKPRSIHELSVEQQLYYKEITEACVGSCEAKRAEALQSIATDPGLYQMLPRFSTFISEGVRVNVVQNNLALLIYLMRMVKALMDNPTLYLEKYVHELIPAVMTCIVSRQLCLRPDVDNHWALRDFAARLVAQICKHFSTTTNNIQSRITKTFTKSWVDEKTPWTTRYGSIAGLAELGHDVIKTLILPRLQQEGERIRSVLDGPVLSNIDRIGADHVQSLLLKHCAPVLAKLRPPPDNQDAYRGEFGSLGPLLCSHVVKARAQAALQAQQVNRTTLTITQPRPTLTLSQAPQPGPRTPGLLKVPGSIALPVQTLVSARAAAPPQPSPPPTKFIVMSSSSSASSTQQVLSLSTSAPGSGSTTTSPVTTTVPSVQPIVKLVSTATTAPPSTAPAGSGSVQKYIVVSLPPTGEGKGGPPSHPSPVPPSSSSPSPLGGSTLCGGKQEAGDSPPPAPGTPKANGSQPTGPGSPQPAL
UniProt Q8K0H5: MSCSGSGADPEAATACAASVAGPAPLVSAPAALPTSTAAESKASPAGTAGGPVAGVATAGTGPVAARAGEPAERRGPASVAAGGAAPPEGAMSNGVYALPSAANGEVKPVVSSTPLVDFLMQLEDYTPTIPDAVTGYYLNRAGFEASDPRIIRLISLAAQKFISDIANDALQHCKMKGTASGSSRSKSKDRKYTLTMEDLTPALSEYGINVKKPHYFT

T1: FLAG-V5-TAF7L (TATA-binding protein associated factor 7L, doubly tagged), Q9D3R9
T1 chain: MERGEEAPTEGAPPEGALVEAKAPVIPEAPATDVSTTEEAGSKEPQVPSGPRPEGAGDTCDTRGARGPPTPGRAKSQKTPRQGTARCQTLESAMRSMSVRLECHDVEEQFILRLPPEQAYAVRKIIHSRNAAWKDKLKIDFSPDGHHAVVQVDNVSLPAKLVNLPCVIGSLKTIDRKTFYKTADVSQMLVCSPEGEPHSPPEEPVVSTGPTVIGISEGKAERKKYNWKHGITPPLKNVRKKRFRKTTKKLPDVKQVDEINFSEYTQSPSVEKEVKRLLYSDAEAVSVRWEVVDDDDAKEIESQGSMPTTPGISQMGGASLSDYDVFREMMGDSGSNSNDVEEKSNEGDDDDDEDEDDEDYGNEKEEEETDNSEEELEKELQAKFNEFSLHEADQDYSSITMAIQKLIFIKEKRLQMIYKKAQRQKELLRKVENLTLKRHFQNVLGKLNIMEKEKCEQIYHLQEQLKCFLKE

T2: FLAG-V5-TAF7L (TATA-binding protein associated factor 7L, doubly tagged) (UniProt Q9D3R9)
T2 sequence: T1 chain

B1: TBP, P29037 1-316 (protein)
chain: MDQNNSLPPYAQGLASPQGAMTPGIPIFSPMMPYGTGLTPQPIQNTNSLSILEEQQRQQQQQQQQQQQQQAVATAAASVQQSTSQQPTQGASGQTPQLFHSQTLTTAPLPGTTPLYPSPMTPMTPITPATPASESSGIVPQLQNIVSTVNLGCKLDLKTIALRARNAEYNPKRFAAVIMRIREPRTTALIFSSGKMVCTGAKSEEQSRLAARKYARVVQKLGFPAKFLDFKIQNMVGSCDVKFPIRLEGLVLTHQQFSSYEPELFPGLIYRMIKPRIVLLIFVSGKVVLTGAKVRAEIYEAFENIYPILKGFRKTT
B2: FKBP15 (protein, UniProt Q6P9Q6 1-1216)
chain: MFGAGDEDDTDFLSPSGGAKLASLFGLDQATMGHGNEFFQYTAPKQPKKGQGTAAGNQTAPKPAPATTGTSSVLFATAVHAYRYINGQYAKQGKFGAAVLGNHTSREYRILLYISQQQPVTVATIHLNFELMVRPNNYSTFYDDQRQNWSIMFESEKAAVSFNKQVCVAKCNSISSLDAVLCQDLVAAEGPAVETGDSLEVAYTGWLLQNHVLGQVFDSTANKDKPLRLKLGSGKVVKGLEDGLLGMKKGGKRLIITPSACAAGSEGVIGWTQPTDSILVFEVEVRRVKFARDSGSDGHSVSSRDSAAPSPIPASDSLSADPVVTPLPLPLKPGEPGLRSKSNSLSEQLTVNSNPDTVKAKLISRMAKMGQPMLPILPPQLDSNDSETEDATVLRGAGQSLVTPSIQPSLQPAHPVLPQMASQAPQPSGSGLQTPSAALMQAVSLDSHSAVSGNAQNFQPYAGVQAYAYPQTPSVTSQLQPVRPLYPAPLSQAPHFQGSGDMMSFLMTEARQHNTEIRMAVNKVADKMDHLMTKVEELQKHSSGNSMLLPSMSVTMETSMIMSNIQRIIQENERLKQELLEKSSRIEEQNDKISDLIERNQRYVEQSNLMMEKRNNSLQTATENTQARILHAEQEKAKVTEELAAATAQVSHLQLKMTAHQKKETELQLQLTDNLKETDLLRGHVTRLQADLSELREASEQTQTKFKSEKQSRRQLELKVTSLEEELTDLRAEKTSLEKNLSERKKKSAQERCQAEAEMDEIRKSHQEELDRLRQLLKKARVSTDQAAAEQLTLAQAELQSQWEAKCEQLLASARDEHLQQYREVCAQRDAHQQKLALLQDECLALQAQIAAFTEQKEHMQRLEKTKSQAPAGRAAADPSEKVKKIMNQVFQSLRGEFELEESYDGGTILRTIMHTIKMVTLQLLNHQEEEEEEEEEEEEEKKPLRPSLEQPGPATPGMPPAPPSGETQEAPEVLPEQVVGETTPLPLQALPTPENGAQTRKGEPAEAEVPSEIKDSSLPPQPAGIPAHRVLGPPTSIPPKPPGPVTMDSESEEMLAADQRTVQPNGLLGEEHVREVATDGLLQGNSRRLSLTPDPEKGEPPALDPESQGGEAQPPECKQAEDVSSSGPRETLLDTELASAAAGTSLRHNQDSQHCSLSGDEEDELFKGATLKVPRPTAQPEEEDEDEVSMKGRPPPTPLFGDDDDDDDDDIGWLG

Target: T1, FLAG-V5-TAF7L (TATA-binding protein …)
Assay: affinity purification with mass spectrometry; sequential immunoprecipitation (ANTI-FLAG M2 gel, FLAG peptide elution, then anti-V5 agarose, glycine pH 2.5 elution) from 3 mg whole-cell extract of post-differentiated FLAG-V5-GFP/TAF7L C3H10T1/2 adipocytes; 0.3 M NaCl, 0.2% NP-40, 4°C overnight; LC-MS/MS of the eluate
Conditions: remark: other sources report otherwise

Row | Molecule | binding
1 | B1 | binds

Target: T2, FLAG-V5-TAF7L (TATA-binding protein associated factor 7L, doubly tagged)
Assay: as above
Conditions: not given

Row | Molecule | binding
2 | TAF5 (from UniProt Q8C092 1-801) | binds
3 | PPARγ (from UniProt P37238 1-505) | binds
4 | TAF4 (from UniProt E9QAP7 1-1042) | binds
5 | TAF6 (from UniProt Q62311 1-678) | binds
6 | TAF10 (from UniProt Q8K0H5 1-218) | binds
7 | B2 | no binding

Results are given in words; binding and its absence hold for the method and conditions named. In cells and extracts the contact can be indirect. These calls come from enrichment with a bait or labelling near it, and not all partners need be listed. For some of these results: No binding means not detected with the bait. Sequences can lack the tags named with a protein.
